The target in experiment [1] is PEAK1 homodimer (BiCAP: V1-PEAK1 with V2-PEAK1) (human). Nature of the experiment: affinity purification with mass spectrometry.
For experiment [2], the target named is PEAK2 homodimer (BiCAP: V1-PEAK2 with V2-PEAK2). Kind of experiment: affinity purification with mass spectrometry.

No constants are given. Whether binding was seen depends on the method and setting. In cells and extracts the contact can be indirect. Here binding means that the protein was enriched with, or labelled near, the bait; the list need not be complete. A no says only that the protein was not detected with the bait.

B1: PLCγ1 (enzyme, UniProt P19174 1-1290)
chain: MAGAASPCANGCGPGAPSDAEVLHLCRSLEVGTVMTLFYSKKSQRPERKTFQVKLETRQITWSRGADKIEGAIDIREIKEIRPGKTSRDFDRYQEDPAFRPDQSHCFVILYGMEFRLKTLSLQATSEDEVNMWIKGLTWLMEDTLQAPTPLQIERWLRKQFYSVDRNREDRISAKDLKNMLSQVNYRVPNMRFLRERLTDLEQRSGDITYGQFAQLYRSLMYSAQKTMDLPFLEASTLRAGERPELCRVSLPEFQQFLLDYQGELWAVDRLQVQEFMLSFLRDPLREIEEPYFFLDEFVTFLFSKENSVWNSQLDAVCPDTMNNPLSHYWISSSHNTYLTGDQFSSESSLEAYARCLRMGCRCIELDCWDGPDGMPVIYHGHTLTTKIKFSDVLHTIKEHAFVASEYPVILSIEDHCSIAQQRNMAQYFKKVLGDTLLTKPVEISADGLPSPNQLKRKILIKHKKLAEGSAYEEVPTSMMYSENDISNSIKNGILYLEDPVNHEWYPHYFVLTSSKIYYSEETSSDQGNEDEEEPKEVSSSTELHSNEKWFHGKLGAGRDGRHIAERLLTEYCIETGAPDGSFLVRESETFVGDYTLSFWRNGKVQHCRIHSRQDAGTPKFFLTDNLVFDSLYDLITHYQQVPLRCNEFEMRLSEPVPQTNAHESKEWYHASLTRAQAEHMLMRVPRDGAFLVRKRNEPNSYAISFRAEGKIKHCRVQQEGQTVMLGNSEFDSLVDLISYYEKHPLYRKMKLRYPINEEALEKIGTAEPDYGALYEGRNPGFYVEANPMPTFKCAVKALFDYKAQREDELTFIKSAIIQNVEKQEGGWWRGDYGGKKQLWFPSNYVEEMVNPVALEPEREHLDENSPLGDLLRGVLDVPACQIAIRPEGKNNRLFVFSISMASVAHWSLDVAADSQEELQDWVKKIREVAQTADARLTEGKIMERRKKIALELSELVVYCRPVPFDEEKIGTERACYRDMSSFPETKAEKYVNKAKGKKFLQYNRLQLSRIYPKGQRLDSSNYDPLPMWICGSQLVALNFQTPDKPMQMNQALFMTGRHCGYVLQPSTMRDEAFDPFDKSSLRGLEPCAISIEVLGARHLPKNGRGIVCPFVEIEVAGAEYDSTKQKTEFVVDNGLNPVWPAKPFHFQISNPEFAFLRFVVYEEDMFSDQNFLAQATFPVKGLKTGYRAVPLKNNYSEDLELASLLIKIDIFPAKENGDLSPFSGTSLRERGSDASGQLFHGRAREGSFESRYQQPFEDFRISQEHLADHFDSRERRAPRRTRVNGDNRL
In the case of B1, the binding result in experiment [1] and in experiment [2] was “no binding” each time.

B2: FARP1 (protein, UniProt Q9Y4F1 1-1045)
chain: MGEIEQRPTPGSRLGAPENSGISTLERGQKPPPTPSGKLVSIKIQMLDDTQEAFEVPQRAPGKVLLDAVCNHLNLVEGDYFGLEFPDHKKITVWLDLLKPIVKQIRRPKHVVVKFVVKFFPPDHTQLQEELTRYLFALQVKQDLAQGRLTCNDTSAALLISHIVQSEIGDFDEALDREHLAKNKYIPQQDALEDKIVEFHHNHIGQTPAESDFQLLEIARRLEMYGIRLHPAKDREGTKINLAVANTGILVFQGFTKINAFNWAKVRKLSFKRKRFLIKLRPDANSAYQDTLEFLMASRDFCKSFWKICVEHHAFFRLFEEPKPKPKPVLFSRGSSFRFSGRTQKQVLDYVKEGGHKKVQFERKHSKIHSIRSLASQPTELNSEVLEQSQQSTSLTFGEGAESPGGQSCRRGKEPKVSAGEPGSHPSPAPRRSPAGNKQADGAASAPTEEEEEVVKDRTQQSKPQPPQPSTGSLTGSPHLSELSVNSQGGVAPANVTLSPNLSPDTKQASPLISPLLNDQACPRTDDEDEGRRKRFPTDKAYFIAKEVSTTERTYLKDLEVITSWFQSTVSKEDAMPEALKSLIFPNFEPLHKFHTNFLKEIEQRLALWEGRSNAQIRDYQRIGDVMLKNIQGMKHLAAHLWKHSEALEALENGIKSSRRLENFCRDFELQKVCYLPLNTFLLRPLHRLMHYKQVLERLCKHHPPSHADFRDCRAALAEITEMVAQLHGTMIKMENFQKLHELKKDLIGIDNLVVPGREFIRLGSLSKLSGKGLQQRMFFLFNDVLLYTSRGLTASNQFKVHGQLPLYGMTIEESEDEWGVPHCLTLRGQRQSIIVAASSRSEMEKWVEDIQMAIDLAEKSSSPAPEFLASSPPDNKSPDEATAADQESEDDLSASRTSLERQAPHRGNTMVHVCWHRNTSVSMVDFSIAVENQLSGNLLRKFKNSNGWQKLWVVFTNFCLFFYKSHQDNHPLASLPLLGYSLTIPSESENIQKDYVFKLHFKSHVYYFRAESEYTFERWMEVIRSATSSASRPHVLSHKESLVY
Regarding B2, the binding result in experiment [2] is listed as “binds”.

B3: SPRY4 (protein, UniProt Q9C004 1-299)
chain: MEPPIPQSAPLTPNSVMVQPLLDSRMSHSRLQHPLTILPIDQVKTSHVENDYIDNPSLALTTGPKRTRGGAPELAPTPARCDQDVTHHWISFSGRPSSVSSSSSTSSDQRLLDHMAPPPVADQASPRAVRIQPKVVHCQPLDLKGPAVPPELDKHFLLCEACGKCKCKECASPRTLPSCWVCNQECLCSAQTLVNYGTCMCLVQGIFYHCTNEDDEGSCADHPCSCSRSNCCARWSFMGALSVVLPCLLCYLPATGCVKLAQRGYDRLRRPGCRCKHTNSVICKAASGDAKTSRPDKPF
For the molecule B3, the binding result in experiment [2] is “binds”.

(Values after article doi:10.1101/2024.02.14.580406.)
